Laboratory results taken from PMC4357696.
Results are given in words; binding and its absence hold for the method and conditions named. Some results given as binding are weak or reduced against the parent protein; the word gives no strength. Where a sequence is shown, tags or fusion partners need not be part of it.

The chains behind the UniProt entries cited, without tags or fusion partners.
UniProt P15873: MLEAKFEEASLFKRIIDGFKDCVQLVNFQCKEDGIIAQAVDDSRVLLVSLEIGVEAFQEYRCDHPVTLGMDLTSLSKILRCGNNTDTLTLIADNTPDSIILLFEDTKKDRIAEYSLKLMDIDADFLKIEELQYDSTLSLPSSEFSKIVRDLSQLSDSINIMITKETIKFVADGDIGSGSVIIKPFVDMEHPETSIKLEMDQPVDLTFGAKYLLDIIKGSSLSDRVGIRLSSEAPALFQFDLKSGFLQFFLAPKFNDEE

T1: Ubc13, Gal4 DNA-binding domain fusion (pOBD-UBC13, pXZ386) (budding yeast) (UniProt P52490)
T1 sequence: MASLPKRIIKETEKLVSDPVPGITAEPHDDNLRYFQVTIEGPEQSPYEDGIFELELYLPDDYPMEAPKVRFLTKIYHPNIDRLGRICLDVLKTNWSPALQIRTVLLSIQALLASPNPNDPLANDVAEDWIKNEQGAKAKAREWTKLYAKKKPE

T2: Rev1, Gal4 DNA-binding domain fusion (pOBD-REV1, pXZ442) (budding yeast) (UniProt P12689)
T2 sequence: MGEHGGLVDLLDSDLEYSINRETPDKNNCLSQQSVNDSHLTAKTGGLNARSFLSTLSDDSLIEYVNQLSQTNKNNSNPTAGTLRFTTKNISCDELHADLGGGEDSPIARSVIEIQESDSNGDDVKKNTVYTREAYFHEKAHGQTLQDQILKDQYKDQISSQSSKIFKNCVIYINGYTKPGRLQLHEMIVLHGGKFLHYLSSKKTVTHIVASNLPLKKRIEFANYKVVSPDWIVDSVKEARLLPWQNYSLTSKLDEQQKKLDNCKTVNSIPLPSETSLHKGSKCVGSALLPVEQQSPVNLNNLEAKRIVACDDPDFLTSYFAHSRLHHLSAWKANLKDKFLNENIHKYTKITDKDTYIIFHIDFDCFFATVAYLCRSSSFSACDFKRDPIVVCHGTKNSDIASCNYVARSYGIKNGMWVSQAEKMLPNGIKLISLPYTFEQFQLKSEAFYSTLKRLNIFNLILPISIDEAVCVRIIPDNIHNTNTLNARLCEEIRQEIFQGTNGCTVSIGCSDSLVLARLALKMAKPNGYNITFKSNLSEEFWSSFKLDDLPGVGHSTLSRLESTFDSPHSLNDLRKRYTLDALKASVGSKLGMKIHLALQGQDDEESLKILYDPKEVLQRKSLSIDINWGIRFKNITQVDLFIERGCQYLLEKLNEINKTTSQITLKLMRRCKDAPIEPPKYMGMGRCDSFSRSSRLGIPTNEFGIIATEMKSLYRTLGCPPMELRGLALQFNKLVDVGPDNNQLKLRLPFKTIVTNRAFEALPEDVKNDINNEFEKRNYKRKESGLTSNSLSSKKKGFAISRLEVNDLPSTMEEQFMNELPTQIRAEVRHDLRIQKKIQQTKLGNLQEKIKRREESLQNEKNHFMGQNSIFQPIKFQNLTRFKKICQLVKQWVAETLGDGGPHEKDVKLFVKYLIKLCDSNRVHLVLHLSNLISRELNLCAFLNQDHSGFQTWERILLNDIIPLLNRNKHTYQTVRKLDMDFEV

T3: full length Rad5 (1-1169 a.a.), Gal4 DNA-binding domain fusion (pGBT9-RAD5, p347) (budding yeast) (UniProt P32849)
T3 sequence: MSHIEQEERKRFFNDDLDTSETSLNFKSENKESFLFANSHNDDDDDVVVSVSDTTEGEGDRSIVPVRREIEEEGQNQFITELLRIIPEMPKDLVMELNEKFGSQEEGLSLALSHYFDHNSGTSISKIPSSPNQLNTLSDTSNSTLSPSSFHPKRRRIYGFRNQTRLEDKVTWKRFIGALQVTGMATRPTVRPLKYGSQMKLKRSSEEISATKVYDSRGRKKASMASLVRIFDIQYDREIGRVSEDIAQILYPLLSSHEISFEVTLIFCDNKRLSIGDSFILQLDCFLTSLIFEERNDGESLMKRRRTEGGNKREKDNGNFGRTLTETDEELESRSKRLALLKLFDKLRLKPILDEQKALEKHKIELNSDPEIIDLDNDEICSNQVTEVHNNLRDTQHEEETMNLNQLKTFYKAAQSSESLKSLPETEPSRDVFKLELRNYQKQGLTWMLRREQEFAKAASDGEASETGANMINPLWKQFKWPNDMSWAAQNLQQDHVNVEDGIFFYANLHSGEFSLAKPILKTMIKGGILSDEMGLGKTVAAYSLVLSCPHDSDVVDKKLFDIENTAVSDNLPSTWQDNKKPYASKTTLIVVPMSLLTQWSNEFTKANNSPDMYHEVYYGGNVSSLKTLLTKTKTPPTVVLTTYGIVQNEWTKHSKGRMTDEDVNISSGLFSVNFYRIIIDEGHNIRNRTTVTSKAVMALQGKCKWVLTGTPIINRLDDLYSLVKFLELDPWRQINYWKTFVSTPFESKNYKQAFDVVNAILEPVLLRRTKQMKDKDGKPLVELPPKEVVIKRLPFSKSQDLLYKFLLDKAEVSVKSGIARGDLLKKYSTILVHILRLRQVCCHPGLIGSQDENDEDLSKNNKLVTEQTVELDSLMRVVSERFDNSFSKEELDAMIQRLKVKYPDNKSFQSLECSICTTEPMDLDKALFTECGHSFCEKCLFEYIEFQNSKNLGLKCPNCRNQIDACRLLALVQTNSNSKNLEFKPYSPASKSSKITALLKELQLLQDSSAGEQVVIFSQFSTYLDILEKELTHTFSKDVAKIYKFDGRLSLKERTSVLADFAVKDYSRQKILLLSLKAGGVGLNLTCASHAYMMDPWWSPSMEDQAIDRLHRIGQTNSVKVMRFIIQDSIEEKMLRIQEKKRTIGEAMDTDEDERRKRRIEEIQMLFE

T4: rad5-AA (D681A, E682A), Gal4 DNA-binding domain fusion (pGBT9-rad5-AA, p404) (budding yeast) (UniProt P32849)
T4 sequence: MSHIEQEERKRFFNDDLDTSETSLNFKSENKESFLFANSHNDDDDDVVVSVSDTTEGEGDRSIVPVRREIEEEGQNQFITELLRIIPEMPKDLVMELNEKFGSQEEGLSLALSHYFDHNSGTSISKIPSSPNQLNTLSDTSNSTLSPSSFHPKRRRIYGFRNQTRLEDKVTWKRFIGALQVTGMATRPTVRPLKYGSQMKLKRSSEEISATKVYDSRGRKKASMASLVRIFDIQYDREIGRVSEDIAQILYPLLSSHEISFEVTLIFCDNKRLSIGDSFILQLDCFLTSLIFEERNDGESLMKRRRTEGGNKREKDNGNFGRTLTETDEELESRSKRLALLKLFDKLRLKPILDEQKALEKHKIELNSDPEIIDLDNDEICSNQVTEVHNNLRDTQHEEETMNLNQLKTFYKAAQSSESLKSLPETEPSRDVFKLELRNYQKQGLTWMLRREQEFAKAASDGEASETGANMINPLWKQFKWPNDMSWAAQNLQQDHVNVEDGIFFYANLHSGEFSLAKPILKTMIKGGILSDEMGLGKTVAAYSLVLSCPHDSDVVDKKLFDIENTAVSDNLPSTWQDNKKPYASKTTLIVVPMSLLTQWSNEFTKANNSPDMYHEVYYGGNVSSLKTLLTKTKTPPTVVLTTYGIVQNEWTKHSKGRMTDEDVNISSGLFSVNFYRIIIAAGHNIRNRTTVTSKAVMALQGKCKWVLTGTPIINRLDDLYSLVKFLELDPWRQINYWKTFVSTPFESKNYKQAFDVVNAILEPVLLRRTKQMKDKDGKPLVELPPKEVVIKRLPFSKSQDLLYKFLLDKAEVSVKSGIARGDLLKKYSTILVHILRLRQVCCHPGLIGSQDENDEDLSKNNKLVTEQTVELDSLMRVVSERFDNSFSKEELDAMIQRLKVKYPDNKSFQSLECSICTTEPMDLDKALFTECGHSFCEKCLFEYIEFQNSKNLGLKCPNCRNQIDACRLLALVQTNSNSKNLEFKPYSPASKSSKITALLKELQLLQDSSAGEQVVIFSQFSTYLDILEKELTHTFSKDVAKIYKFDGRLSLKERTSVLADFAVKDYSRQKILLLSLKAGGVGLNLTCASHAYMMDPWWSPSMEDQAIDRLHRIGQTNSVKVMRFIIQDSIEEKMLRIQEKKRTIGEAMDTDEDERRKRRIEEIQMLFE


Experiments:
[1] = molecular target: T1, Ubc13, Gal4 DNA-binding domain fusion (pOBD-UBC13, pXZ386) (budding yeast); assay: two-hybrid; yeast two-hybrid, Gal4 AD and BD fusions expressed from low-copy-number plasmids (CEN-based)
[2] = molecular target: PCNA, Gal4 DNA-binding domain fusion (pOBD-POL30, pXZ373) (budding yeast) (UniProt P15873); assay: as above
[3] = molecular target: T2, Rev1, Gal4 DNA-binding domain fusion (pOBD-REV1, pXZ442) (budding yeast); assay: as above
[4] = molecular target: T3, full length Rad5 (1-1169 a.a.), Gal4 DNA-binding domain fusion (pGBT9-RAD5, p347) (budding yeast); assay: two-hybrid; yeast two-hybrid, Gal4 AD and BD fusions expressed from high-copy-number plasmids (2μ-based); also the Rad5 deletion constructs in pGBT9
[5] = molecular target: T4, rad5-AA (D681A, E682A), Gal4 DNA-binding domain fusion (pGBT9-rad5-AA, p404) (budding yeast); assay: as above

Binder	binding [1]	binding [2]	binding [3]	binding [4]	binding [5]
Rad5, Gal4 activation domain fusion (pOAD-RAD5, pXZ388) (protein, UniProt P32849 1-1169) MSHIEQEERKRFFNDDLDTSETSLNFKSENKESFLFANSHNDDDDDVVVSVSDTTEGEGDRSIVPVRREIEEEGQNQFITELLRIIPEMPKDLVMELNEKFGSQEEGLSLALSHYFDHNSGTSISKIPSSPNQLNTLSDTSNSTLSPSSFHPKRRRIYGFRNQTRLEDKVTWKRFIGALQVTGMATRPTVRPLKYGSQMKLKRSSEEISATKVYDSRGRKKASMASLVRIFDIQYDREIGRVSEDIAQILYPLLSSHEISFEVTLIFCDNKRLSIGDSFILQLDCFLTSLIFEERNDGESLMKRRRTEGGNKREKDNGNFGRTLTETDEELESRSKRLALLKLFDKLRLKPILDEQKALEKHKIELNSDPEIIDLDNDEICSNQVTEVHNNLRDTQHEEETMNLNQLKTFYKAAQSSESLKSLPETEPSRDVFKLELRNYQKQGLTWMLRREQEFAKAASDGEASETGANMINPLWKQFKWPNDMSWAAQNLQQDHVNVEDGIFFYANLHSGEFSLAKPILKTMIKGGILSDEMGLGKTVAAYSLVLSCPHDSDVVDKKLFDIENTAVSDNLPSTWQDNKKPYASKTTLIVVPMSLLTQWSNEFTKANNSPDMYHEVYYGGNVSSLKTLLTKTKTPPTVVLTTYGIVQNEWTKHSKGRMTDEDVNISSGLFSVNFYRIIIDEGHNIRNRTTVTSKAVMALQGKCKWVLTGTPIINRLDDLYSLVKFLELDPWRQINYWKTFVSTPFESKNYKQAFDVVNAILEPVLLRRTKQMKDKDGKPLVELPPKEVVIKRLPFSKSQDLLYKFLLDKAEVSVKSGIARGDLLKKYSTILVHILRLRQVCCHPGLIGSQDENDEDLSKNNKLVTEQTVELDSLMRVVSERFDNSFSKEELDAMIQRLKVKYPDNKSFQSLECSICTTEPMDLDKALFTECGHSFCEKCLFEYIEFQNSKNLGLKCPNCRNQIDACRLLALVQTNSNSKNLEFKPYSPASKSSKITALLKELQLLQDSSAGEQVVIFSQFSTYLDILEKELTHTFSKDVAKIYKFDGRLSLKERTSVLADFAVKDYSRQKILLLSLKAGGVGLNLTCASHAYMMDPWWSPSMEDQAIDRLHRIGQTNSVKVMRFIIQDSIEEKMLRIQEKKRTIGEAMDTDEDERRKRRIEEIQMLFE	binds	binds	binds		
rad5-AA (D681A, E682A), Gal4 activation domain fusion (pOAD-rad5-AA, pXZ571) (protein, UniProt P32849 1-1169) MSHIEQEERKRFFNDDLDTSETSLNFKSENKESFLFANSHNDDDDDVVVSVSDTTEGEGDRSIVPVRREIEEEGQNQFITELLRIIPEMPKDLVMELNEKFGSQEEGLSLALSHYFDHNSGTSISKIPSSPNQLNTLSDTSNSTLSPSSFHPKRRRIYGFRNQTRLEDKVTWKRFIGALQVTGMATRPTVRPLKYGSQMKLKRSSEEISATKVYDSRGRKKASMASLVRIFDIQYDREIGRVSEDIAQILYPLLSSHEISFEVTLIFCDNKRLSIGDSFILQLDCFLTSLIFEERNDGESLMKRRRTEGGNKREKDNGNFGRTLTETDEELESRSKRLALLKLFDKLRLKPILDEQKALEKHKIELNSDPEIIDLDNDEICSNQVTEVHNNLRDTQHEEETMNLNQLKTFYKAAQSSESLKSLPETEPSRDVFKLELRNYQKQGLTWMLRREQEFAKAASDGEASETGANMINPLWKQFKWPNDMSWAAQNLQQDHVNVEDGIFFYANLHSGEFSLAKPILKTMIKGGILSDEMGLGKTVAAYSLVLSCPHDSDVVDKKLFDIENTAVSDNLPSTWQDNKKPYASKTTLIVVPMSLLTQWSNEFTKANNSPDMYHEVYYGGNVSSLKTLLTKTKTPPTVVLTTYGIVQNEWTKHSKGRMTDEDVNISSGLFSVNFYRIIIAAGHNIRNRTTVTSKAVMALQGKCKWVLTGTPIINRLDDLYSLVKFLELDPWRQINYWKTFVSTPFESKNYKQAFDVVNAILEPVLLRRTKQMKDKDGKPLVELPPKEVVIKRLPFSKSQDLLYKFLLDKAEVSVKSGIARGDLLKKYSTILVHILRLRQVCCHPGLIGSQDENDEDLSKNNKLVTEQTVELDSLMRVVSERFDNSFSKEELDAMIQRLKVKYPDNKSFQSLECSICTTEPMDLDKALFTECGHSFCEKCLFEYIEFQNSKNLGLKCPNCRNQIDACRLLALVQTNSNSKNLEFKPYSPASKSSKITALLKELQLLQDSSAGEQVVIFSQFSTYLDILEKELTHTFSKDVAKIYKFDGRLSLKERTSVLADFAVKDYSRQKILLLSLKAGGVGLNLTCASHAYMMDPWWSPSMEDQAIDRLHRIGQTNSVKVMRFIIQDSIEEKMLRIQEKKRTIGEAMDTDEDERRKRRIEEIQMLFE			binds		
Ubc13, two-hybrid fusion on a high-copy-number plasmid (enzyme, UniProt P52490 1-153) MASLPKRIIKETEKLVSDPVPGITAEPHDDNLRYFQVTIEGPEQSPYEDGIFELELYLPDDYPMEAPKVRFLTKIYHPNIDRLGRICLDVLKTNWSPALQIRTVLLSIQALLASPNPNDPLANDVAEDWIKNEQGAKAKAREWTKLYAKKKPE				binds	binds
